Measured data: PubChem BioAssay AID1259308 (NCATS, 2017)
The whole screen tested about 59,000 reagents; shown is an unselected part. Of all reagents, about 1,510 (2.6%) got an active call. 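Calls use total luciferase alone and ignore viability, so some active siRNAs may act by altering cell number.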 A number with no mark means an inactive call. Reagents against one gene are numbered here. No sequences are given here.

Screen: 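Candidate targets for better recombinant protein yield in mammalian cells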 (primary screen)
System: human HEK293 embryonic kidney cells stably expressing firefly luciferase (HEK-CMV-Luc2-Hygro)
Knock-down reagent: single siRNA against human genes, 0.8 pmol siRNA per well
Time to read-out: 72 h
Detection: 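Luciferase light (ONE-Glo) measured on one replicate plate set and viability (CellTiter-Glo) on the other, scaled to a negative control siRNA, with robust z-scores and luciferase per cell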
Direction: total luciferase, z-score and total luciferase, % of control: higher = more reporter protein produced; luciferase per cell, z-score: higher = more reporter output per viable cell; viable cells, % of control: higher = more viable cells
Rule for the call: 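Active when the median/MAD z-score for overall luciferase is greater than 3; a gene was taken forward for validation with new siRNAs if at least two of its three siRNAs passed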
Calls: active = raised luciferase; inactive = no rise

target gene | reagent | total luciferase, z-score | total luciferase, % of control | luciferase per cell, z-score | viable cells, % of control
PCYT1B (GeneID 9468) | 1 | 1.23 | 106 | 0.847 | 95.1
PCYT1B (GeneID 9468) | 2 | 0.822 | 98.2 | 1.17 | 80.8
PCYT1B (GeneID 9468) | 3 | 0.0266 | 82.4 | 0.88 | 73
LIPN (GeneID 643418) | 1 | 0.209 | 86 | -0.298 | 104
LIPN (GeneID 643418) | 2 | 1.19 | 105 | 1.25 | 84.9
LIPN (GeneID 643418) | 3 | 0.72 | 96.2 | 0.517 | 93.8
PKHD1 (GeneID 5314) | 1 | -0.2 | 77.9 | -0.816 | 108
PKHD1 (GeneID 5314) | 2 | -0.26 | 76.7 | 0.113 | 83.2
PKHD1 (GeneID 5314) | 3 | -1.01 | 61.8 | -0.658 | 82.2
TIMM13 (GeneID 26517) | 1 | 2.32 | 128 | 1.69 | 91.8
TIMM13 (GeneID 26517) | 2 | -0.406 | 73.8 | -1.42 | 120
TIMM13 (GeneID 26517) | 3 | 0.049 | 82.9 | -0.278 | 99.6
GMPPA (GeneID 29926) | 1 | -0.132 | 79.3 | 0.169 | 84.7
GMPPA (GeneID 29926) | 2 | -1.12 | 59.6 | -0.0889 | 68.2
GMPPA (GeneID 29926) | 3 | -0.191 | 78.1 | -0.153 | 90.8
CNTNAP1 (GeneID 8506) | 1 | -1.09 | 60.2 | -1.23 | 92.9
CNTNAP1 (GeneID 8506) | 2 | -1.35 | 55.1 | -1.78 | 98.4
CNTNAP1 (GeneID 8506) | 3 | 3.56 (active) | 153 | 1.69 | 109
TMEM223 (GeneID 79064) | 1 | 1.99 | 121 | 1.27 | 97.1
TMEM223 (GeneID 79064) | 2 | 0.22 | 86.3 | -0.36 | 106
TMEM223 (GeneID 79064) | 3 | 0.108 | 84 | -0.0969 | 96.3
EHBP1 (GeneID 23301) | 1 | -0.198 | 78 | -0.768 | 107
EHBP1 (GeneID 23301) | 2 | 0.568 | 93.2 | -0.038 | 105
EHBP1 (GeneID 23301) | 3 | -2.1 | 40.2 | -3.28 | 106

Not a retest: entries from further up.
target gene | reagent | total luciferase, z-score | total luciferase, % of control | luciferase per cell, z-score | viable cells, % of control
LIPN (GeneID 643418) | 3 | 0.72 | 96.2 | 0.517 | 93.8
PKHD1 (GeneID 5314) | 1 | -0.2 | 77.9 | -0.816 | 108
